At least one structure is not confirmed: it was looked up by name or label, or the drawing left a doubt.
Tested on: cell-free particulate fraction of methane-grown methylotrophs
Assay: Conversion of n-alkanes to sec. alcohols by cell-free particulate fractions: inhibitors and electron donors
Assay type: biochemical
Text: The conditions for preparing the cell suspensions or the cell-free particulate fractions from methane-grown methylotroph microorganisms is the same as described above.

O=C1O[C@H]([C@@H](O)CO)C(O)=C1O [Ascorbate]
use as electron donor for hydroxylation of n-alkanes: could also be utilized as an electron donor

Source: patent US4268630A, “Microbiological production of ketones from C3 -C6 alkanes” (priority 1979, dated 1981)
